We go through 1 molecule from patent publication US20130143227A1 (University of Texas, published 2013).

These are yes or no findings as the source states them, for the method shown. Binding seen in cells or lysates may run through a third protein. Some results given as binding are weak or reduced against the parent protein; the word gives no strength. Sequences can lack the tags named with a protein.

Assay [1] deals with T1, Myc-LGR5ECD (human) (UniProt O75473).
T1 sequence: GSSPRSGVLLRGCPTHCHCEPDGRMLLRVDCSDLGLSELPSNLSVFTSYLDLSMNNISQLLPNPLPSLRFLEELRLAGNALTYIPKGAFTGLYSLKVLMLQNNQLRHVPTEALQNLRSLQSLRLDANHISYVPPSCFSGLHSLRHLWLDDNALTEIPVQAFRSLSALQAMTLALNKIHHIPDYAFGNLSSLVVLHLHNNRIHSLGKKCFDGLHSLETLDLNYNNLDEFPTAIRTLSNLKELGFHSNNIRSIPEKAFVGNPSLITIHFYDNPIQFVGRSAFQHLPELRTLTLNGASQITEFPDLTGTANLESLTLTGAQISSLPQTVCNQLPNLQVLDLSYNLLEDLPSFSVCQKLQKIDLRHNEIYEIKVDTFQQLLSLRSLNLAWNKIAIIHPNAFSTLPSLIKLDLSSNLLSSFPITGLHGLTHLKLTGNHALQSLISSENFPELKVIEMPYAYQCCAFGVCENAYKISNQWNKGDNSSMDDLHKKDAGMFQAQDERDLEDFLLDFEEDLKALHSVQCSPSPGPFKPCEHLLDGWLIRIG
Description: pull-down with protein A/G-agarose beads, immunoblot. A general note: A western blot detects proteins with antibodies after separation by electrophoresis.

Assay [2] addresses T1, Myc-LGR5ECD (human). Description: pull-down with protein A/G-agarose beads, immunoblot (legend of FIG. 4A).

B1: mRSPO1-Fc (Fc fusion)
chain: DYPYDVPDYAGAQPAWTHIAVGSRGIKGKRQRRISAEGSQACAKGCELCSEVNGCLKCSPKLFILLERNDIRQVGVCLPSCPPGYFDARNPDMNKCIKCKIEHCEACFSHNFCTKCQEGLYLHKGRCYPACPEGSTAANSTMECGSPAQCEMSEWSPWGPCSKKRKLCGFRKGSEERTRRVLHAPGGDHTTCSDTKETRKCTVRRTPCPEGQKRRKGGQGRRENANRHPARKNSKEPGSNSRRHKGQQQPQPGTTGPLTSVGPTWAQRRLEPRGPTIKPCPPCKCPAPNLLGGPSVFIFPPKIKDVLMISLSPIVTCVVVDVSEDDPDVQISWFVNNVEVHTAQTQTHREDYNSTLRVVSALPIQHQDWMSGKEFKCKVNNKDLPAPIERTISKPKGSVRAPQVYVLPPPEEEMTKKQVTLTCMVTDFMPEDIYVEWTNNGKTELNYKNTEPVLDSDGSYFMYSKLRVEKKNWVERNSYSCSVVHEGLHNHHTTKSFSRTPGK
On to B1, for which the binding entry with Myc-LGR5ECD (human) [1] and with Myc-LGR5ECD (human) [2] was “binds” each time.
